In patent US8486940B2, “Inhibitors” (Probiodrug AG, priority 2009, dated 2013):
Some entries share one result that the patent states for a list of compounds.

The chains behind the UniProt entries cited, without tags or fusion partners. Residues count along the entry.
UniProt Q16769, 29-361 limits assumed: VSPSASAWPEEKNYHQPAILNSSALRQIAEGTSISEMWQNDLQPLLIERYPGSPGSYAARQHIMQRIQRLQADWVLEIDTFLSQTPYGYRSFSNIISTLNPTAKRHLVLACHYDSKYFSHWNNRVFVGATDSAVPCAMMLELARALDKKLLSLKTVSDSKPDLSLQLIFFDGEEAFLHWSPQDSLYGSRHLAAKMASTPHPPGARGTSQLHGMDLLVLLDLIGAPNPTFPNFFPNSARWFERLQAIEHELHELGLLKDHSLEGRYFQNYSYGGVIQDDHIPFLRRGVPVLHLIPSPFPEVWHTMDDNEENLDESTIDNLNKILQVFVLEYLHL

Each compound was assayed against hQC (Homo sapiens (Human), UniProt Q16769) (assay: QC inhibitor assay (fluorometric / spectrophotometric QC activity assays)).
Type: biochemical
Method: Excitation/emission wavelengths were 320/410 nm.
This novel assay was used to determine the kinetic parameters for most of the QC substrates. […] Samples consisted of the respective QC substrate, 0.3 mM NADH, 14 mM α-Ketoglutaric acid and 30 U/ml glutamate dehydrogenase in a final volume of 250 μl. Reactions were started by addition of QC and persued by monitoring of the decrease in absorbance at 340 nm for 8-15 min.
All samples were measured at 30° C., using either the […]uor Plus or the Sunrise (both from TECAN) reader for microplates. Kinetic data was evaluated using GraFit software.
For inhibitor testing, the sample composition was the same as described above, except of the putative inhibitory compound added. For a rapid test of QC-inhibition, samples contained 4 mM of the respective inhibitor and a substrate concentration at 1 KM. For detailed investigations of the inhibition and determination of K,-values, influence of the inhibitor on the auxiliary enzymes was investigated first. […] The inhibitory constant was evaluated by fitting the set of progress curves to the general equation for competitive inhibition using GraFit software.

IC50, < 10 µM:
O=C1OC[C@H](Cc2ccc(OC3CCCCC3)cc2)N1c1ccc2[nH]cnc2c1 [Example 197, (S)-4-(4-(cyclohexyloxy)benzyl)-3-(1H-benzo[d]imidazol-5-yl)oxazolidin-2-one]
O=C1NCC(c2ccccc2)N1c1ccn2ccnc2c1 (stereo not drawn) [Example 53, 1-(H-imidazo[1,2-a]pyridin-7-yl)-5-phenylimidazolidin-2-one]
CCCOc1ccc(C2c3c(F)ccc(F)c3C(=O)N2c2ccc3[nH]cnc3c2)cc1 (stereo not drawn) [Example 232, 2-(1H-benzo[d]imidazol-5-yl)-4,7-difluoro-3-(4-propoxyphenyl)isoindolin-1-one]
